Source: the supplement of paper PMC6411743
± gives the standard deviation of the averaged measurements. This is a selection; strong and weak results do not stand in their true shares.

Assays:
Assay in all cases: NP40-soluble protein abundance relative to vehicle (solubility fold change) (ratio); higher = more soluble protein in presence of AMP-PNP
GGT7 = target: T1, GGT7 (UniProt Q9UJ14)
T1 sequence (whole entry): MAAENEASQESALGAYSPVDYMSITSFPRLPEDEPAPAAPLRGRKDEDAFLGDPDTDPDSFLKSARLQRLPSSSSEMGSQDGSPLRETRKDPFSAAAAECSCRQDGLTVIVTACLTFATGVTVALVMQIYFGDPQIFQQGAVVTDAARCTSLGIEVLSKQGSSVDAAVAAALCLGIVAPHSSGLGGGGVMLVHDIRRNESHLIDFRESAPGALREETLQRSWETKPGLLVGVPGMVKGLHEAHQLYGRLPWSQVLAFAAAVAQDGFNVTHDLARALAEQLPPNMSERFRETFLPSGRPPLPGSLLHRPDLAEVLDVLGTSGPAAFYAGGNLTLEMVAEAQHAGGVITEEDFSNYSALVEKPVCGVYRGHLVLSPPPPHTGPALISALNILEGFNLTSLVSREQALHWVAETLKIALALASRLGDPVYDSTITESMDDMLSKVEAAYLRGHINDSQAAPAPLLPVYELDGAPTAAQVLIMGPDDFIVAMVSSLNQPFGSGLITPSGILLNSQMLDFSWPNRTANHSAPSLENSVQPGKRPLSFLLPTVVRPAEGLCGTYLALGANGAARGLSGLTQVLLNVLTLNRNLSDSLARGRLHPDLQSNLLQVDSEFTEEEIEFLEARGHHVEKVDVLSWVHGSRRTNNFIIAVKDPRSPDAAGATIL
Procedure, shortened: (§1)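 Values are fold changes against the detergent-processed vehicle, based on vsn-normalised intensities. Jurkat crude lysate was treated at eight concentrations from 0.1 to 10 mM (10 min at room temperature, then 3 min at 37 °C), solubilised with 0.8% NP40 and benzonase, ultracentrifuged and analysed by TMT-labelled LC-MS/MS over three independent experiments.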

PCYOX1 = target: T2, PCYOX1 (UniProt Q9UHG3)
T2 sequence (whole entry): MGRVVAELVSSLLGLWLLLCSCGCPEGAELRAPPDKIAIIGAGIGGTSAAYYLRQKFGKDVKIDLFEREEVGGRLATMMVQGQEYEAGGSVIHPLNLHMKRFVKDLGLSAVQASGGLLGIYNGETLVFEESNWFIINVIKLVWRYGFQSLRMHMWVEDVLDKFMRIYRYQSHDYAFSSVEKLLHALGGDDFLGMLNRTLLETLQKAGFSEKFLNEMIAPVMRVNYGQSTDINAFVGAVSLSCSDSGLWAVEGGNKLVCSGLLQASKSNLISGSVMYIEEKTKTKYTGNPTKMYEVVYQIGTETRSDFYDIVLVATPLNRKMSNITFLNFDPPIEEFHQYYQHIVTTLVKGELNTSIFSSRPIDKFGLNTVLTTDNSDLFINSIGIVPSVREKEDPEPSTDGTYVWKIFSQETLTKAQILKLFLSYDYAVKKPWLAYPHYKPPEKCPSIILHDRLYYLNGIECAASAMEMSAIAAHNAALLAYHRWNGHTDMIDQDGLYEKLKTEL
Procedure, shortened: as §1

PLCL2 = target: T3, PLCL2 (UniProt Q9UPR0)
T3 sequence (whole entry): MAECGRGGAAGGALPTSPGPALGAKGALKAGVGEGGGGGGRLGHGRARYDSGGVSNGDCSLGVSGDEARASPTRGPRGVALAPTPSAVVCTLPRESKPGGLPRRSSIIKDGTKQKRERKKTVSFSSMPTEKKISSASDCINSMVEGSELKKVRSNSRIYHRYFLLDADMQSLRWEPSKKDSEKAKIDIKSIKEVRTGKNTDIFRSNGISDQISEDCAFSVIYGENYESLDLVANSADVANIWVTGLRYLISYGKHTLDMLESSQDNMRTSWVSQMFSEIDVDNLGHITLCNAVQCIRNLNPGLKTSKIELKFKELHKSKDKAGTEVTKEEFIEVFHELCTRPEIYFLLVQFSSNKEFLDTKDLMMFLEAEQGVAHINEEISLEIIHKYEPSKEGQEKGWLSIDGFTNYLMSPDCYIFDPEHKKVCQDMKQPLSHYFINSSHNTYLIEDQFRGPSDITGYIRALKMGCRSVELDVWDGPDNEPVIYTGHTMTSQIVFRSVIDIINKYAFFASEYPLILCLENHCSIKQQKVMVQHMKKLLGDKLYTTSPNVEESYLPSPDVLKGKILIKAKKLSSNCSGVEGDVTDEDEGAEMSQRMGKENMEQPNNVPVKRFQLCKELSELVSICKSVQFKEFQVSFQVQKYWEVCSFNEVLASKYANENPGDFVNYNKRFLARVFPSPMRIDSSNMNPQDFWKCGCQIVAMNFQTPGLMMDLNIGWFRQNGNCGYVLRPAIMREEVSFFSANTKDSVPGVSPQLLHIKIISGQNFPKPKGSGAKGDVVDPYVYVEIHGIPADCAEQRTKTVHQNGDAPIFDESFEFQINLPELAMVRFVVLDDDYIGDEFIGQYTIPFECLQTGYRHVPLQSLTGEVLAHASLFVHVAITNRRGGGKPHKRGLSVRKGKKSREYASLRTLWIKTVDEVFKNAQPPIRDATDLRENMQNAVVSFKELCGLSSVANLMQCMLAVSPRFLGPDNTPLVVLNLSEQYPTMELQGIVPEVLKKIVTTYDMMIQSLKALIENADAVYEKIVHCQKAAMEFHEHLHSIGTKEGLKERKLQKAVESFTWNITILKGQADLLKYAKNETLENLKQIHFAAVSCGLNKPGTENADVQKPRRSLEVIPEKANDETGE
Procedure, shortened: as §1

POLG2 = target: T4, POLG2 (UniProt Q9UHN1)
T4 sequence (whole entry): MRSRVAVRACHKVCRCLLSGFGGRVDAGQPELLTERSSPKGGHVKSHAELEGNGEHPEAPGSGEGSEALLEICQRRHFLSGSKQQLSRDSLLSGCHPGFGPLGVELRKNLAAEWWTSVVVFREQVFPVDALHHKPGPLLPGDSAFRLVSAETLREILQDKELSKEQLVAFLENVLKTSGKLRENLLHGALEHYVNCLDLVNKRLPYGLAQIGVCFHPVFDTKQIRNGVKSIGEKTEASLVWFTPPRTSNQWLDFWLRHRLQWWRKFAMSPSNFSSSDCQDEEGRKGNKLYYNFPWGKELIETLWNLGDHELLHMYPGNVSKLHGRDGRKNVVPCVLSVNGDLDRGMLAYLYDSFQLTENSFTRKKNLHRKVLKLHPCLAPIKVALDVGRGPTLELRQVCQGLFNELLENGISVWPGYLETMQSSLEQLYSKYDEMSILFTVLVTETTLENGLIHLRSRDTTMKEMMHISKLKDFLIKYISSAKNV
Procedure, shortened: as §1

RRP15 = target: T5, RRP15 (UniProt Q9Y3B9)
T5 sequence (whole entry): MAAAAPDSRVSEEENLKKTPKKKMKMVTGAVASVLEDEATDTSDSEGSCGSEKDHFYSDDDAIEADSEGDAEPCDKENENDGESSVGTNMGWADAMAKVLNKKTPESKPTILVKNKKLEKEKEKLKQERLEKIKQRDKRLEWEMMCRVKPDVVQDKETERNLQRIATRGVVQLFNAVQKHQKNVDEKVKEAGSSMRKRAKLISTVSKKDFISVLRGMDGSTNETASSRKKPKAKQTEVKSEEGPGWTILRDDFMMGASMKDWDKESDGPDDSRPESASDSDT
Procedure, shortened: as §1

SERGEF = target: T6, SERGEF (UniProt Q9UGK8)
T6 sequence (whole entry): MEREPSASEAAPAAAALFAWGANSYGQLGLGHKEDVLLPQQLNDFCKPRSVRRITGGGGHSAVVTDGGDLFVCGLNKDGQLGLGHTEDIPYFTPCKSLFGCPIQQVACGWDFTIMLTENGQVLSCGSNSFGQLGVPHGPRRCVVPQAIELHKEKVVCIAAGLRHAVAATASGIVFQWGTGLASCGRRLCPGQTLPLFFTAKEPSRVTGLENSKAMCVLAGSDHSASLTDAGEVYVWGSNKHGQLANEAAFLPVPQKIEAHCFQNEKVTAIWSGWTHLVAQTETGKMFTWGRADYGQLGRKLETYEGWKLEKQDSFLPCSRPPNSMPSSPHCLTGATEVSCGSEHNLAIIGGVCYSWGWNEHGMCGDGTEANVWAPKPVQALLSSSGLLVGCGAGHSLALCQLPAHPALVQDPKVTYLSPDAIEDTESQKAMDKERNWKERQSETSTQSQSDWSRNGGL
Procedure, shortened: as §1

Nc1ncnc2c1ncn2[C@@H]1O[C@H](COP(=O)(O)OP(=O)(O)NP(=O)(O)O)[C@@H](O)[C@H]1O [adenylyl imidodiphosphate]
NP40-soluble protein abundance (GGT7; concentration: 8mM): 1.01 ± 0.02 | NP40-soluble protein abundance (GGT7; concentration: 10mM): 1.01 ± 0.046 | NP40-soluble protein abundance (PCYOX1; concentration: 1mM): 0.972 ± 0.02 | NP40-soluble protein abundance (PCYOX1; concentration: 2mM): 0.92 ± 0.051 | NP40-soluble protein abundance (PCYOX1; concentration: 4mM): 0.978 ± 0.032 | NP40-soluble protein abundance (PCYOX1; concentration: 6mM): 1.01 ± 0.039 | NP40-soluble protein abundance (PCYOX1; concentration: 8mM): 1.03 ± 0.025 | NP40-soluble protein abundance (PCYOX1; concentration: 10mM): 1.01 ± 0.025 | NP40-soluble protein abundance (PLCL2; concentration: 1mM): 1.05 ± 0.017 | NP40-soluble protein abundance (PLCL2; concentration: 2mM): 1.04 ± 0.027 | NP40-soluble protein abundance (PLCL2; concentration: 4mM): 1.02 ± 0.041 | NP40-soluble protein abundance (PLCL2; concentration: 6mM): 1.01 ± 0.034 | NP40-soluble protein abundance (PLCL2; concentration: 8mM): 1.01 ± 0.025 | NP40-soluble protein abundance (PLCL2; concentration: 10mM): 1.01 ± 0.019 | NP40-soluble protein abundance (POLG2; concentration: 1mM): 0.994 ± 0.073 | NP40-soluble protein abundance (POLG2; concentration: 2mM): 1.03 ± 0.056 | NP40-soluble protein abundance (POLG2; concentration: 4mM): 0.996 ± 0.072 | NP40-soluble protein abundance (POLG2; concentration: 6mM): 1.06 ± 0.051 | NP40-soluble protein abundance (POLG2; concentration: 8mM): 1.07 ± 0.043 | NP40-soluble protein abundance (POLG2; concentration: 10mM): 1.05 ± 0.021 | NP40-soluble protein abundance (RRP15; concentration: 1mM): 0.982 ± 0.022 | NP40-soluble protein abundance (RRP15; concentration: 2mM): 1.01 ± 0.04 | NP40-soluble protein abundance (RRP15; concentration: 4mM): 0.919 ± 0.04 | NP40-soluble protein abundance (RRP15; concentration: 6mM): 0.921 ± 0.027 | NP40-soluble protein abundance (RRP15; concentration: 8mM): 0.901 ± 0.04 | NP40-soluble protein abundance (RRP15; concentration: 10mM): 0.903 ± 0.026 | NP40-soluble protein abundance (SERGEF; concentration: 1mM): 0.974 ± 0.05 | NP40-soluble protein abundance (SERGEF; concentration: 2mM): 0.96 ± 0.028 | NP40-soluble protein abundance (SERGEF; concentration: 4mM): 0.973 ± 0.048
